Reference: PMC2680019

What was measured:
[1] = target: T1, Myc-tagged Tensin2 1-1272 (ΔPTB) (UniProt Q63HR2); assay: co-IP; HEK293T co-transfected with Myc-tagged tensin and FLAG-tagged DLC1 (or GFP-tagged DLC2); cleared lysate in NET-N buffer (25 mM Tris-HCl pH 8.0, 50 mM NaCl, 0.2 mM EDTA, 0.1% NP40); anti-Myc antibody overnight at 4°C, protein-A sepharose, 5 washes; blot with anti-FLAG (anti-GFP for DLC2)
T1 sequence: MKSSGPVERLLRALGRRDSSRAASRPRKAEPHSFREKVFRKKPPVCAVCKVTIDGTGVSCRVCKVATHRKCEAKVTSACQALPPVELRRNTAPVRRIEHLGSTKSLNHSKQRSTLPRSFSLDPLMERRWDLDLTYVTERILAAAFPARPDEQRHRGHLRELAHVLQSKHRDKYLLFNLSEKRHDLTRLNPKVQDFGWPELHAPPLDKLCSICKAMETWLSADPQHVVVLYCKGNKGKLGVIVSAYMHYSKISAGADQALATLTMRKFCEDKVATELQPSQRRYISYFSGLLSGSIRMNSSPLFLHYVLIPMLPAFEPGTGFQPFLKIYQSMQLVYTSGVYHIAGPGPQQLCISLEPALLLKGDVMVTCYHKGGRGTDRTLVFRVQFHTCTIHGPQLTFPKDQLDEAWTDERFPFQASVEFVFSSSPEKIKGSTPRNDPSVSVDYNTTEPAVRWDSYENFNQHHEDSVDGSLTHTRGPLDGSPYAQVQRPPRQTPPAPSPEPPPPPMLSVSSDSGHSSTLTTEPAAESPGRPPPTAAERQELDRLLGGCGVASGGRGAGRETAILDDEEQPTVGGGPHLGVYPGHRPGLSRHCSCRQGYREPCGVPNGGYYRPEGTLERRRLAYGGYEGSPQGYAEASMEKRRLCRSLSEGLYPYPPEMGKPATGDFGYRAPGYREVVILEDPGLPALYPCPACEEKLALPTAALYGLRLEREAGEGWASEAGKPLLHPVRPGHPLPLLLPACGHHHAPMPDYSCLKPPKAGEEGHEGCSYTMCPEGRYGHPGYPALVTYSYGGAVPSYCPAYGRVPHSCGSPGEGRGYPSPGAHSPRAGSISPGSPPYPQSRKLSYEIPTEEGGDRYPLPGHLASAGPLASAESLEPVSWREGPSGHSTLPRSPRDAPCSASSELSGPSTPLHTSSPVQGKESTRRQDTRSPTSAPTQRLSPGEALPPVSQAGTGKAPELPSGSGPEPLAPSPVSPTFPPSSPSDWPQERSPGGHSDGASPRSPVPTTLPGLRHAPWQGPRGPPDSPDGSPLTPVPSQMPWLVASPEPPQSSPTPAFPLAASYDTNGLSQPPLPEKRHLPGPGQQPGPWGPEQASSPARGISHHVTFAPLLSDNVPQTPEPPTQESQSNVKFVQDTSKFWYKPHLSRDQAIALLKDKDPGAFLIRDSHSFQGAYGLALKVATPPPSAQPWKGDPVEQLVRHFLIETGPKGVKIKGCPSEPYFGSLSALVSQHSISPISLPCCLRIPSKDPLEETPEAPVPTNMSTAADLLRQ

[2] = target: T2, Myc-tagged Tensin2 1-1409 (WT, wild-type) (UniProt Q63HR2); assay: as above
T2 sequence: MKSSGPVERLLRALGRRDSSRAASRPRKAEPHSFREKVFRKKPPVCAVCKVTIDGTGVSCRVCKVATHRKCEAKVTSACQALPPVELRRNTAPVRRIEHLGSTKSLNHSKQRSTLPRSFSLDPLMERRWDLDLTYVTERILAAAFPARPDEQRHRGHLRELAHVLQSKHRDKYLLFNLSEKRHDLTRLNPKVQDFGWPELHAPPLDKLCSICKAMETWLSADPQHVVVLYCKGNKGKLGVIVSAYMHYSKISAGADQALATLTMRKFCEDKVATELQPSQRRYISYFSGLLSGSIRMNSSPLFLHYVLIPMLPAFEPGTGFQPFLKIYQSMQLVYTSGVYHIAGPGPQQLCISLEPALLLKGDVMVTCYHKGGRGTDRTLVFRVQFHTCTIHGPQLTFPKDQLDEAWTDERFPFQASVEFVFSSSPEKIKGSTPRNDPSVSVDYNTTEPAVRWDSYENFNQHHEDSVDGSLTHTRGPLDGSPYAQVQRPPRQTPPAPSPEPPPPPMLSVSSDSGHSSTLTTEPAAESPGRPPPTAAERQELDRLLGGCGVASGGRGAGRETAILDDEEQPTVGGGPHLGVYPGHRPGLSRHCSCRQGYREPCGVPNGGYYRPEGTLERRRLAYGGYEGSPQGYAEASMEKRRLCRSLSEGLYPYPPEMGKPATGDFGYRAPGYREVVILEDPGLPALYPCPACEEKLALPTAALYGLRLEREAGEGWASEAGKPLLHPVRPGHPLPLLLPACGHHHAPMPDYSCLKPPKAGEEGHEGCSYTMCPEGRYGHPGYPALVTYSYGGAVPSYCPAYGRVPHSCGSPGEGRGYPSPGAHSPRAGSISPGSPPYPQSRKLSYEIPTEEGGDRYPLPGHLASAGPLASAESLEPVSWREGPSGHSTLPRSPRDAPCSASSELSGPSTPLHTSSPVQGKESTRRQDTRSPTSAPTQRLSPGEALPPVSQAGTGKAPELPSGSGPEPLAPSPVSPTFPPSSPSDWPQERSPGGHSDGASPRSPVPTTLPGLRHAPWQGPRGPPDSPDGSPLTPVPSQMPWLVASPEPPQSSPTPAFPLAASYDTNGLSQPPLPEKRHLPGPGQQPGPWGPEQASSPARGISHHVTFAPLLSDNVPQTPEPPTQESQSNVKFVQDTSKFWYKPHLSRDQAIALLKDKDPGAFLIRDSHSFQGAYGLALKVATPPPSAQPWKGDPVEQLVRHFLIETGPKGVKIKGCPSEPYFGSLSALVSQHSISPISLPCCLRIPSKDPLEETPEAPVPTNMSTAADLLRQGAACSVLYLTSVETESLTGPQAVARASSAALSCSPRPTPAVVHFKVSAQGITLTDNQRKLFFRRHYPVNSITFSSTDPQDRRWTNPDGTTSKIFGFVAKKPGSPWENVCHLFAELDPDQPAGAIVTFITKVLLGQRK

| binding [1] | binding [2] | Substance |
| --- | --- | --- |
| no binding | binds | FLAG-tagged DLC1 FL (Deleted in liver cancer 1, wild-type) (from UniProt Q96QB1-1) |
| no binding | binds | FLAG-tagged DLC1 1-400 (from UniProt Q96QB1-1) (domain or fragment) |

No constants are given. Whether binding was seen depends on the method and setting. Binding seen in cells or lysates may run through a third protein. For some of these results: Binding calls can cover weak binding; strength is not graded here. Where a sequence is shown, tags or fusion partners need not be part of it.
